Several values for one entry are separate records, joined by “and”; a condition that tells them apart may be missing. Equal entries are not always repeated. Inconclusive means that the source gave no clear call. Such entries were picked first, then a sample of the others. Potencies of inconclusive entries are doubtful fits and often do not repeat. Activity calls are given as the source filed them. The calls were made as follows: active = hit-call score of the fitted dose curve at least 0.9, where 1 is the maximum; inconclusive = response in the unintended direction; inactive = score below 0.9.
Target: human Peroxisome Proliferator-activated Receptor alpha (PPARa), PPARA (gene 5465) (UniProt Q07869)
Experiment: NVS_NR_hPPARa: NovaScreen (NVS) Nuclear Receptor Binding Assay for human Peroxisome Proliferator-activated Receptor alpha (PPARa) (AID 2283359)
Procedure: NVS_NR_hPPARa is a biochemical, single-readout assay that uses extracted gene-proteins in a cell-free assay. Measurements were taken 1 hour after chemical dosing in a 384-well plate.NVS_NR_hPPARa is one of one assay component(s) measured or calculated from the NVS_NR_hPPARa assay. It is designed to make measurements of fluorescent resonance energy transfer, a form of binding reporter, as detected with fluorescent resonance energy transfer signals by Time-Resolved Fluorescence Resonance Energy Transfer (TR-FRET) technology.Data from the assay component NVS_NR_hPPARa was analyzed into 1 assay endpoint. This assay endpoint, NVS_NR_hPPARa, was analyzed in the positive analysis fitting direction relative to DMSO as the negative control and baseline of activity. Using a type of binding reporter, loss-of-signal activity can be used to understand changes in the binding as they relate to the gene PPARA. Furthermore, this assay endpoint can be referred to as a primary readout, because the performed assay has only produced 1 assay endpoint. To generalize the intended target to other relatable targets, this assay endpoint is annotated to the nuclear receptor intended target family, where the subfamily is non-steroidal.
Binding assays used specific radioligands (tritiated, iodinated) with non-radioactive competitive displacement ligands in agonist or antagonist protocols (as indicated) and various reference compounds and inhibitors to titrate specific binding to receptors and transporters. Most enzyme assays (CYPs, kinases, phosphatases, proteases, HDACs) used recombinant protein and specific substrates (fluorescence mostly, some colorimetric and radioactive) and inhibitors, followed by a biochemical separation of substrate and product. All assays for the biochemical HTS were initially run in duplicate at a single concentration (10 uM for CYP450 assays and 25 uM for all others). […] Each assay was run with positive and negative controls, and concurrent controls on every plate. The follow-up (secondary) screen tested active chemical-pairs in concentration series, as well as a few additional assays not tested in the primary screen, some selected negative inactives, and several cases re-run in the concentration series for confirmatory purposes.

Sequences of proteins named here, by UniProt entry; tags and fusion partners are left off. A change or cut given only in a name is not applied to a line headed by its entry.
UniProt Q07869: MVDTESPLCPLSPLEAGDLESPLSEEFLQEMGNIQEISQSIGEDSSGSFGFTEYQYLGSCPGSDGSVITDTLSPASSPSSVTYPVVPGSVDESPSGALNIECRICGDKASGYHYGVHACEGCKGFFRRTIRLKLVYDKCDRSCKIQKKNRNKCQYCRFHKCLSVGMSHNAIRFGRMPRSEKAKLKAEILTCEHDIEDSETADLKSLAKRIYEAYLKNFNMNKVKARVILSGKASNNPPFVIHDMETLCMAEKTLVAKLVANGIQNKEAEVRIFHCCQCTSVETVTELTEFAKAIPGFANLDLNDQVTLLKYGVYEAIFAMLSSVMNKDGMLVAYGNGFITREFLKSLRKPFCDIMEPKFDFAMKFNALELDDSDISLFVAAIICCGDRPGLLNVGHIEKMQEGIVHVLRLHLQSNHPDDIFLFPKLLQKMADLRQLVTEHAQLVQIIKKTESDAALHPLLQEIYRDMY

| Compound | outcome | AC50 |
| --- | --- | --- |
| CCOC(=O)c1ccc(O)cc1 | inactive | – |
| CCCCCCCC/C=C\CCCCCCCC(=O)OCCO | – | active: 12.5 µM |
| OC1CCC(C2CCCCC2)CC1 (stereo not given) | – | inconclusive: 6.07 µM and inconclusive: 25 µM |
| Nc1nc(=S)c2[nH]cnc2[nH]1 | – | inconclusive: 25 µM |
| COc1ccc2sc(C(=O)Nc3nnn[nH]3)c(OC(C)C)c2c1 | – | inconclusive: 12.2 µM |
| Cc1ccc(S(=O)(=O)NCl)cc1 | – | inconclusive: 44.6 µM |
| NCc1cccc(C2CCN(C(=O)c3ccc(C#Cc4ccccc4F)o3)CC2)c1 | – | active: 40.8 µM |
| NCCN1CCNCC1 | – | inconclusive: 0.124 µM |
| CCCOc1ccc(S(=O)(=O)N2CCN(CC)CC2)cc1-c1nc2c(CC)n(Cc3ccccn3)nc2c(=O)[nH]1 | – | inconclusive: 25 µM |
| COc1ccc(C(=O)Nc2nc3ccccc3c(NCc3ccccc3)c2C#N)cc1 | inactive | – |
| CC(O)CNCC(C)O (stereo not given) | – | inconclusive: 0.644 µM |
| CC(C)c1ccc2c(C(C)C)cc(C(C)C)c(S(=O)(=O)O)c2c1 | – | active: 7.37 µM |
| COc1cccc([C@H](O)C2CCN(CCc3ccc(F)cc3)CC2)c1OC | – | inconclusive: 25 µM |
| Cc1cc2c(cc1C(F)(F)F)N(C(=O)Nc1ccc(Oc3cccnc3C)nc1)CC2 | – | inconclusive: 23 µM |
| CN(C)C(=O)NC1(c2ccccc2)CCN(CCC[C@]2(c3ccc(Cl)c(Cl)c3)CCCN(C(=O)c3ccccc3)C2)CC1 | – | inconclusive: 0.0911 µM |
| CC(C)C1=CC2=CC[C@@H]3[C@](C)(CCC[C@@]3(C)C(=O)O)[C@H]2CC1 | – | inconclusive: 0.2 µM |
| CCc1nc(N)nc(N)c1-c1ccc(Cl)cc1 | – | inconclusive: 25 µM |
| CC(C)CCCCCCc1ccc(O)cc1 | inactive | inconclusive: 4.96 µM |
| CCCCCCCC[N+](C)(CCCCCCCC)CCCCCCCC | – | active: 6.9 µM |

Full records, looked up by structure. Order of values: outcome | AC50
`CC(C)C1=CC2=CC[C@@H]3[C@](C)(CCC[C@@]3(C)C(=O)O)[C@H]2CC1` as listed: – | inconclusive: 0.2 µM
`CCOC(=O)c1ccc(O)cc1` as listed: inactive | –

(continued)

| Compound | outcome | AC50 |
| --- | --- | --- |
| O=CCCCC=O | inactive | – |
| CC(=O)N1CCN(c2ccc(OC[C@H]3CO[C@](Cn4ccnc4)(c4ccc(Cl)cc4Cl)O3)cc2)CC1 | – | inconclusive: 6.22 µM |
| NS(=O)(=O)c1cc2c(cc1Cl)NCNS2(=O)=O | – | inconclusive: 5.82 µM |
| C=CCOC(=O)c1ccccc1C(=O)OCC=C | inactive | – |
| Oc1ccc(-c2ccccc2)c(Cl)c1 | inactive | – |
| O=C(c1ccccc1)C1CCCCC1 | inactive | – |
| C=CCCCCCCCCC(=O)O | – | inconclusive: 25 µM |
| O=C(c1ccc(OCCN2CCCCC2)cc1)c1c(-c2ccc(O)cc2)sc2cc(O)ccc12 | – | active: 6.51 µM and active: 6.99 µM and active: 5.41 µM |
| Cc1ccccc1Cl | – | inconclusive: 25 µM |
| CCCCCCCC/C=C\CCCCCCCC(=O)O | – | active: 8.82 µM |
| Nc1ccc(Nc2ccccc2)cc1 | – | active: 46.3 µM |
| CCCCC(CC)COC(=O)CCCCC(=O)OCc1ccccc1 (stereo not given) | – | inconclusive: 25 µM |
| CCOc1ccc2c(c1)C(C)=CC(C)(C)N2 | inactive | – |
| CCC(Cc1c(I)cc(I)c(N)c1I)C(=O)O (stereo not given) | – | inconclusive: 0.331 µM |
| OCCOCCOCCOCCO | – | inconclusive: 6.7 µM |
| Cc1ccc(C(C)(C)C)cc1 | inactive | – |
| CCCCCCCCCCCCOCCOS(=O)(=O)O | – | active: 5.08 µM |
| C[C@]12CC[C@@H]3c4ccc(O)cc4CC[C@H]3[C@@H]1CC[C@H]2O | inactive | inconclusive: 25 µM and inconclusive: 16.3 nM |
| O=c1c(O)c(-c2ccc(O)cc2O)oc2cc(O)cc(O)c12 | – | inconclusive: 25 µM |
